In publication PMC5522188:
Where two headings read alike, the source gives them in different places. Results are given in words; binding and its absence hold for the method and conditions named. In cells and extracts the contact can be indirect. Some binding calls cover weakened binding; strength is not graded here. Values belong to the molecule of their own block, whether it stands above or below them.

Chains of the proteins cited; added tags and fusions are not shown. Lines headed by an entry give the natural chain unless they say otherwise; changes in a name come on top. A line that says so, or that is headed by a name, gives the form on record, which may keep a tag or linker.
CENP-A Del60-64 (L60-K64 deleted) (P49450, form named): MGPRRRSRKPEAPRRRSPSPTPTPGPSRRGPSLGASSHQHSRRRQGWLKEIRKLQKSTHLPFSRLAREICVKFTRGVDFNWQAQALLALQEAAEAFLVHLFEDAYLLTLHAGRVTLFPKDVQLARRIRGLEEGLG
CENP-A K49A R52A K53A K56A (4A) (P49450, form named): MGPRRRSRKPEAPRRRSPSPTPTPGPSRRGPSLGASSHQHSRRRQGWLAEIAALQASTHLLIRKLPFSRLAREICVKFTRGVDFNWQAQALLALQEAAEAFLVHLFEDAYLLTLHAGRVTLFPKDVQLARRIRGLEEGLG
CENP-A R42A R43A R44A (3A) (P49450, form named): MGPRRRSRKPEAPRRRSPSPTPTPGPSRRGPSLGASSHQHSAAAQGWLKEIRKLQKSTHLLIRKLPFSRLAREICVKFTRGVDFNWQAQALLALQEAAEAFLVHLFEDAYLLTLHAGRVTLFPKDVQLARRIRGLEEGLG

Experiments:
Assay in all cases: co-IP; cell lysates made by sonication in 50 mM Tris pH 7.4, 150 mM NaCl, 1 mM EDTA, 1% NP-40 alternative, 15% glycerol; incubated with antibody and Protein A/G beads for 4 hours, washed three times with lysis buffer, western blotting; precipitating antibody and cell line not stated
[1] = biological target: CENP-A Del60-64 (L60-K64 deleted) (human) (UniProt P49450)
[2] = biological target: CENP-A K49A R52A K53A K56A (4A) (human) (UniProt P49450)
[3] = biological target: CENP-A R42A R43A R44A (3A) (human) (UniProt P49450)
[4] = biological target: Centromere protein A (CENP-A), wild type (human) (UniProt P49450)
[5] = biological target: CENP-A Del60-64 (L60-K64 deleted) (human) (UniProt P49450); remark: listed apart in the source
[6] = biological target: Centromere protein A (CENP-A), wild type (human) (UniProt P49450); remark: listed apart in the source

binding [1]: binds
binding [2]: binds
binding [3]: binds
binding [4]: binds
Molecule: Importin-β (from UniProt Q14974 1-876)

binding [5]: binds
binding [6]: binds
B1: CENP-B (protein, UniProt P07199 1-599)
chain: MGPKRRQLTFREKSRIIQEVEENPDLRKGEIARRFNIPPSTLSTILKNKRAILASERKYGVASTCRKTNKLSPYDKLEGLLIAWFQQIRAAGLPVKGIILKEKALRIAEELGMDDFTASNGWLDRFRRRHGVVSCSGVARARARNAAPRTPAAPASPAAVPSEGSGGSTTGWRAREEQPPSVAEGYASQDVFSATETSLWYDFLPDQAAGLCGGDGRPRQATQRLSVLLCANADGSEKLPPLVAGKSAKPRAGQAGLPCDYTANSKGGVTTQALAKYLKALDTRMAAESRRVLLLAGRLAAQSLDTSGLRHVQLAFFPPGTVHPLERGVVQQVKGHYRQAMLLKAMAALEGQDPSGLQLGLTEALHFVAAAWQAVEPSDIAACFREAGFGGGPNATITTSLKSEGEEEEEEEEEEEEEEGEGEEEEEEGEEEEEEGGEGEELGEEEEVEEEGDVDSDEEEEEDEESSSEGLEAEDWAQGVVEAGGSFGAYGAQEEAQCPTLHFLEGGEDSDSDSEEEDDEEEDDEDEDDDDDEEDGDEVPVPSFGEAMAYFAMVKRYLTSFPIDDRVQSHILHLEHDLVHVTRKNHARQAGVRGLGHQS
